Eleven molecules from paper PMC5351981 can be followed below.

Chains of the proteins cited; added tags and fusions are not shown. Lines headed by an entry give the natural chain unless they say otherwise; changes in a name come on top.
UniProt Q08605: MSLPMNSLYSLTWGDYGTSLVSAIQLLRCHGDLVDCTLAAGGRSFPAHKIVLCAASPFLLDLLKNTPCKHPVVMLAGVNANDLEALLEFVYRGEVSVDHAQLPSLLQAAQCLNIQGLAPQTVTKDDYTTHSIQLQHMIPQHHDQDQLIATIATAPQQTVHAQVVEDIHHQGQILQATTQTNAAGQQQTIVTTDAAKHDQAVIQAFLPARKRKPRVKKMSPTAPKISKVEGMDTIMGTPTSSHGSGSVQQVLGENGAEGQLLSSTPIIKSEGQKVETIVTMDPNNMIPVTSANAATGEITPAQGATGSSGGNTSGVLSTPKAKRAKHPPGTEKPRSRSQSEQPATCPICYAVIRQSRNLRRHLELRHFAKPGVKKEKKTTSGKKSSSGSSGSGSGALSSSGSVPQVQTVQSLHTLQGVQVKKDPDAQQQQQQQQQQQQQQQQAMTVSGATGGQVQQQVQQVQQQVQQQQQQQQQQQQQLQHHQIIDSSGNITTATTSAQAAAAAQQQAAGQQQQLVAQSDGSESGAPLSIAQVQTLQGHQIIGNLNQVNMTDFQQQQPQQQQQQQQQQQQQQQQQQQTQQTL
UniProt A1ZAS6: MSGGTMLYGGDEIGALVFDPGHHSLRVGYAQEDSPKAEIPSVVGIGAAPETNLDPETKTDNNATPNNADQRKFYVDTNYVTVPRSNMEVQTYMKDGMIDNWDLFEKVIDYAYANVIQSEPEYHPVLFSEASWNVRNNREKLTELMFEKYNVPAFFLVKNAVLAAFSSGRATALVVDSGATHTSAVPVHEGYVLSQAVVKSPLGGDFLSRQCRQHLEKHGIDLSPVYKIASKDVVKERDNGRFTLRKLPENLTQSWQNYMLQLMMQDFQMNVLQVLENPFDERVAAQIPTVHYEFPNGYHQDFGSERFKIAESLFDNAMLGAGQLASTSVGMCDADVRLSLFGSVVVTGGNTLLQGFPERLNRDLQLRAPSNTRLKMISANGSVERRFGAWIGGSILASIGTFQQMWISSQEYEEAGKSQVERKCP
UniProt Q24368: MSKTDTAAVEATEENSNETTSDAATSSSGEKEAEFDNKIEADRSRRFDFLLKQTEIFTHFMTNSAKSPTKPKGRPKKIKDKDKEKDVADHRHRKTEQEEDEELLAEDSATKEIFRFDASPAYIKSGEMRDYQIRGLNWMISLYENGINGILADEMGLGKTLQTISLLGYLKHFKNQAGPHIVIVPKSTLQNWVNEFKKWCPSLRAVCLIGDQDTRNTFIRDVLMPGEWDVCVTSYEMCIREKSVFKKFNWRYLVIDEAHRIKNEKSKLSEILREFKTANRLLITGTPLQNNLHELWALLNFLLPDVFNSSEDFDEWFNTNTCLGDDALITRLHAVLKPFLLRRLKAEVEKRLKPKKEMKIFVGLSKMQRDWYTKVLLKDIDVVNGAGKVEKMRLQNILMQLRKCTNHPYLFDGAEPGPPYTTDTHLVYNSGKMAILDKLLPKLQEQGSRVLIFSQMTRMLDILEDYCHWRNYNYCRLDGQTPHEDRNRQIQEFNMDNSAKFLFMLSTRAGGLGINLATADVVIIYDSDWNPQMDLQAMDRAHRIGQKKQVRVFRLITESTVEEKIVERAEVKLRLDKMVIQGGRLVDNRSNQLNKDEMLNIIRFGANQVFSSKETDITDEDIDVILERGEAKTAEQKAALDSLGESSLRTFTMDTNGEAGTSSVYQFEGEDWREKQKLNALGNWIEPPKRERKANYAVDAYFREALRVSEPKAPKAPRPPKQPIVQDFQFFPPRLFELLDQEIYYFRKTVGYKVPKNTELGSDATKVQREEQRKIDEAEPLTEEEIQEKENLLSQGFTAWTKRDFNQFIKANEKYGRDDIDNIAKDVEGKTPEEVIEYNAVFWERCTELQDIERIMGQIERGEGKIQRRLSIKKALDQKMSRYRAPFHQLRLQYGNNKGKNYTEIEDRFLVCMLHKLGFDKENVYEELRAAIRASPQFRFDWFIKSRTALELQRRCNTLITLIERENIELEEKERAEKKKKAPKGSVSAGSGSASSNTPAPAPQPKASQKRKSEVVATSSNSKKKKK

These are yes or no findings as the source states them, for the method shown. Binding calls can cover weak binding; strength is not graded here. For some assays here: Where a sequence is shown, tags or fusion partners need not be part of it. For some assays here: Binding seen in cells or lysates may run through a third protein.

Experiment [1] concerns the target GAGA factor (GAF) (Drosophila melanogaster (endogenous in embryos)) (UniProt Q08605). The experiment can be described thus: co-IP; analytical IP from 100 ug nuclear extract with anti-GAF antibodies or agarose A (mock), with or without DNaseI; Western blotting.
The target in experiment [2] is full-length GAF isoform PC 1-519 aa fused to the GAL4 DNA-binding domain (Drosophila). The experiment in a line: two-hybrid; yeast pJ69-4A; GAF or its fragments on the GAL4 DNA-binding domain (pGBT9), partners on the GAL4 activating domain (pGAD24); growth on -Trp -Leu -His with 1 or 5 mM 3-AT, or -Trp -Leu -His -Ade; scored +++, ++, +.
Experiment [3] addresses GAF 1-131 aa (BTB domain) fused to the GAL4 DNA-binding domain (Drosophila). The experiment is described as above.
Experiment [4] concerns the target GAGA factor (GAF) (Drosophila melanogaster (endogenous in embryos)) (UniProt Q08605). The experiment can be described thus: native gel or EMSA; supershift of the LBC complex formed on the 32P-labelled GAGA4 DNA probe in 6-18 h embryonic nuclear extract (20 ug), antibodies added; 4% gel, 0.5 x TBE, 4 C.
The target is the same in experiment [5]. The experiment in a line: co-IP; analytical IP from 100 ug nuclear extract with anti-GAF antibodies or agarose A (mock), with or without DNaseI; Western blotting. This is another data set of the same source.

For Bap55 (from UniProt A1ZAS6), the binding entry in experiment [1] is “binds”.
Same read-out and setting: to Iswi (from UniProt Q24368 1-1027) belongs “binds”.

B1: Pita (CG3941 PA) 1-681 aa fused to the GAL4 activating domain (protein, UniProt Q95RQ8 1-683)
chain: MAAKLEVREAMLTEKRVCRFCLTEQKLASIFEENPRVKTTANLPLQIMAITAIEVYAGDGMPGHICLECRLLFEHCYRFKQMCKRAETLLRQYPLTGNWPSPLEKPRAPMTMVASKKLLVVPAKTAEPSETPKKLLNTMAKSSSQVIIEDVQVLESAMVTPRTVAGSSPVPRRSHAYELKVDNNQELSMDDVQSMLEDMASELEKEFPDIPQKASPVKPKVLNKSSIRILNKGPAAPVEPRLATPKVKRDDSGNVAIVTEVLDSDLPLDDQDDPTKNAEKVATDVFPCPDCERSFPLQQLLEIHRLNHTRSRSFQCLLCEKSFFSKYDLAKHNFVHTGERPFKCAICSKAFTRKALLHRHERTHTDVPKFICVYCEKPFLSRQEMEKHAERHQKKRPFQCGVCTKSFAFKQGLERHETVHSTNLPFPCQHCERSFSTASKLARHLVAHAGKRAYPCKYCHKSYMLSHHLSRHLRTHTQTSDASFVCSECKVSYSNYNDLLDHALIHATASLKCPMCRKQIEDIDSVESHMDQHKQSERHACEFCDHIFLTQKCLQRHIEDDHVVEMEPYQNEFEDDGEGEGGVDEKEEHLDDFEDMDNVKQEEFVTEYLEDDALYEDHLDDSDESFTPPPPKQRKTNPPKDAQQSVRQTRSRDAQRITQKTGKNEGKPHHKLERNLKNRRSAK
Turning to B1, the binding result in experiment [2] is listed as “no binding”.

B2: Bab2 (CG9102) PA 194-313 aa fused to the GAL4 activating domain (domain or fragment, UniProt Q9W0K4 194-313)
chain: EGQQFCLRWNNYQSNLTNVFDELLQSESFVDVTLSCEGHSIKAHKMVLSACSPYFQALFYDNPCQHPIIIMRDVSWSDLKALVEFMYKGEINVCQDQINPLLKVAETLKIRGLAEVSAGR
B2: the binding entry in experiment [3] and in experiment [2] was “binds” throughout.

B3: Lola (CG12052) PA 1-120 aa fused to the GAL4 activating domain (domain or fragment, UniProt P42283 1-120)
chain: MDDDQQFCLRWNNHQSTLISVFDTLLENETLVDCTLAAEGKFLKAHKVVLSACSPYFATLLQEQYDKHPIFILKDVKYQELRAMMDYMYRGEVNISQDQLAALLKAAESLQIKGLSDNRT
With B3, the binding result in experiment [3] and in experiment [2] was “binds” throughout.

B4: Batman (Lolal, CG5738 PA) 1-127 aa fused to the GAL4 activating domain (protein, UniProt Q7KRI2 1-127)
chain: MMSSDQQFFLKWNDFQTNMVTSFRHLRDEKSFTDVTLACEGQTCKAHKMVLSACSPYFKALLEENPSKHPIIILKDVSYIHLQAILEFMYAGEVNVSQEQLPAFLKTADRLKVKGLAETPSSIKREG
For B4, the binding result in experiment [2] is “binds”.

B5: E(y)2/ENY2 (protein, UniProt Q9VYX1 1-101)
chain: MSTSGAVDQYTVLTGDRSKIKDLLCSRLTECGWRDEVRLMCRNILMEKGTNNSFTVEQLIAEVTPKARTLVPDAVKKELLMKIRTILTEIEEEPDEPEDES
B5: the binding result in experiment [4] is on record as “binds”.

B6: Su(Hw) (CG8573 PA) 1-941 aa fused to the GAL4 activating domain (protein, UniProt P08970 1-941)
chain: MSASKEGKEKKGKLLGVENISPPKDKRPATRMKLLNDVGAGEDSEASTTTTTSRTPSNKQEKRGSVAGSRIKILNEEILGTPKTEKRGATKSTAPAASTVKILNEKKTPSATVTAVETTKIKTSPSKRKKMEHYVLQAVKSENTKADTTVTVVTEEDDTIDFILADDEEVVPGRIENNNGQEIVVTEDDEDLGEDGDEDGEDSSGKGNSSQTKIKEIVEHVCGKCYKTFRRVQSLKKHLEFCRYDSGYHLRKADMLKNLEKIEKDAVVMEKKDICFCCSESYDTFHLGHINCPDCPKSFKTQTSYERHIFITHSEFSDFPCSICNANLRSEALLALHEEQHKSRGKPYACKICGKDFTRSYHLKRHQKYSSCSSNETDTMSCKVCDRVFYRLDNLRSHLKQHLGTQVVKKPEYMCHTCKNCFYSLSTLNIHIRTHTGEKPFDCDLCDKKFSALVALKKHRRYHTGEKPYSCTVCNQAFAVKEVLNRHMKRHTGERPHKCDECGKSFIQATQLRTHSKTHIRPFPCEQCDEKFKTEKQLERHVKTHSRTKRPVFSCAECKRNFRTPALLKEHMDEGKHSPKQQRSSMRSAVKIMERTDCAICDKNFDSSDTLRRHIRTVHECDPDDIFGVEPHPSKRAKKDIESEEVVPVALNTSAGSLISSQTDGNGVVVREFLVDEGDGAAQTITLENETYTILPLDGAIEGEQLTDEAGVKPEAKKEEAQVSPVVKKEQRKSLAASLAAAIADNLEESCSEDDFSGEILTEEDIKLKENVGKLIDMLVDPPILKKYGWPNAPEETVLCKVIENCGHDLTKGGENYAELDYGSRMREYCKLLFTVVIHNDSIKSLLNNFPIDDVIEYVLGDEDQDEGGLDKDNESHSGDEEAVSVTGETKTNEIREKPEKKEVSAKSEKKEIVGKAVDKDNSEEVVRENKKKPVGEQEKA
B6: in experiment [2], the binding result was “no binding”.

B7: Adf1 (protein, UniProt P05552 1-262)
chain: MHTLTAAIEMDKLDANLEQQFDLNLIEAVKLNPVIYDRSHYNYKHFVRKAQTWKQIAETLGVPEQKCTKRWKSLRDKFAREMKLCQESRWRYFKQMQFLVDSIRQYRESLLGKCANGSQSANQVADPSQQQQAQQQTVVDIFAQPFNGSATTSAQALTHPHEITVTSDAQLATAVGKDQKPYFYEPPLKRERSEEEHSDNMLNTIKIFQNNVSQAVSAEDQSFGMVVTDMLNTLGVRQKAEAKVHIIKYLTDMQLLAQHNKY
Take B7: in experiment [5], the binding result was “binds”.

B8: CG2199 PB 1-733 aa fused to the GAL4 activating domain (protein, UniProt Q8IRH5 1-733)
chain: MRNILLCENMTKVQKEVRCDHCGTSQGSKSVFSGQKVFLGRKITDVLETITHRSIPSSLPIKICFVCTSTFMSSAALIEKVRETVDRVQEQPAKKTKVAEIEEPSTQESDKKAVKVPKKNTTLRQRSKSIAAFPPSFVNGANTNTEIEIISASPKKLDKTPKKQISRLFEDNLNDSVKLTPAKEVSSTKKAFLNLFGNGGNDAIEVLTESEEEEDSDKGPITINTNNFQCPECEFHAKFPKPYKEHLQKEHGLQRPRIYPCTLCIKTFGVLKTLKNHLRDTHSRTFESEAKTKAKESKEKEAKSGAKNKIDAKAKETNAVSQRKKPKEKKSKEKKTEIKCNVETKVVDEIDDQVNNKKGTDSEDADQTQATKIASFKALNESLMKKRMLENVIDSEYTFAINGSSASTPRADSNNFQCEICDCELMTAKQMQEHMKTVHSIDKPKVFKCHVCEKSLATKQSLKTHMTLHADGAEAPNSSKRKILQDEDEDVDILGTTQIENTAEKVEGPKKSQQSPTKAAKFTNRKILQEEDEVVEIVDAFKTDNTAEDDEGPAEEKIIRSRNNIQHQVDGGMIAPRSPAKKTKKTSHVDLSVSTTNGNSPAKSEKRKKQDKSEDTLPSSDVDIVEEINYNVRPHKKARLESIGDSTADESTLSCDRCGKFVKSRQRLDSHMEKKHAAKLQCTLCKEVYQNQMDYVAHFSNCGSEGGLPCGVANCKKVFTEANFLSSHLRKRH
B8: the binding entry in experiment [3] and in experiment [2] was “binds” each time.

B9: Sry-delta (CG17958 PA) 1-433 aa fused to the GAL4 activating domain (protein, UniProt P07664 1-433)
chain: MDTCFFCGAVDLSDTGSSSSMRYETLSAKVPSSQKTVSLVLTHLANCIQTQLDLKPGARLCPRCFQELSDYDTIMVNLMTTQKRLTTQLKGALKSEFEVPESGEDILVEEVEIPQSDVETDADAEADALFVELVKDQEESDTEIKREFVDEEEEEDDDDDDEFICEDVDVGDSEALYGKSSDGEDRPTKKRVKQECTTCGKVYNSWYQLQKHISEEHSKQPNHICPICGVIRRDEEYLELHMNLHEGKTEKQCRYCPKSFSRPVNTLRHMRMHWDKKKYQCEKCGLRFSQDNLLYNHRLRHEAEENPIICSICNVSFKSRKTFNHHTLIHKENRPRHYCSVCPKSFTERYTLKMHMKTHEGDVVYGVREEAPADEQQVVEELHVDVDESEAAVTVIMSDNDENSGFCLICNTNFENKKELEHHLQFDHDVVLK
For the molecule B9, the binding entry in experiment [2] is listed as “no binding”.
